The list shows a part of the results.
Tests used:
Assay in all cases: log2 fold change, soluble protein after heating vs DMSO (PISA); higher = thermal stabilisation; K562 lysate, 10 uM; active = over 0.2 and 3.5 SD of the protein, either way, in both replicates (recomputed)
erlotinib = compound: C#Cc1cccc(Nc2ncnc3cc(OCCOC)c(OCCOC)cc23)c1 [erlotinib]
Procedure, shortened: (§1)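 Following dounce homogenisation of K562 pellets in PBS pH 7.4 with 1 mM MgCl2, crude extract at 1 mg/mL protein was incubated for 30 min with 10 μM compound. Aliquots were then heated for 3 min over 48°C-58°C and pooled, NP-40 was added to 0.5% at 4°C, and soluble protein was recovered as the supernatant at 21,000xg for 90 min. Channel-sum-equalised TMTpro 16plex LC-MS/MS quantified this protein. Each value, from duplicates, is a log-two fold change in thermal stability relative to solvent controls.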

Sequences of proteins named here, by UniProt entry; tags and fusion partners are left off. A change or cut given only in a name is not applied to a line headed by its entry.
UniProt P11279: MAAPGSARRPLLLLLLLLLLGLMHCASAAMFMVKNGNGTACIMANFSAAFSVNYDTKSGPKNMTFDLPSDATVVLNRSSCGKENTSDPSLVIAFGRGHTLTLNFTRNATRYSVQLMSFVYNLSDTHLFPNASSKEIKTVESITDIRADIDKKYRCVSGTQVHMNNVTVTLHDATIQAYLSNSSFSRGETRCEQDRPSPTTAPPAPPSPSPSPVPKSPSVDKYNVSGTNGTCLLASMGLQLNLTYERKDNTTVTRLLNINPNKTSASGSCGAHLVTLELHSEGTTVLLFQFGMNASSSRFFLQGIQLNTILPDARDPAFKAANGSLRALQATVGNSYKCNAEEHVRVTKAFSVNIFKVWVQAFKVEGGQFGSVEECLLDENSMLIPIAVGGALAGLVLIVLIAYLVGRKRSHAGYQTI
UniProt Q9Y448: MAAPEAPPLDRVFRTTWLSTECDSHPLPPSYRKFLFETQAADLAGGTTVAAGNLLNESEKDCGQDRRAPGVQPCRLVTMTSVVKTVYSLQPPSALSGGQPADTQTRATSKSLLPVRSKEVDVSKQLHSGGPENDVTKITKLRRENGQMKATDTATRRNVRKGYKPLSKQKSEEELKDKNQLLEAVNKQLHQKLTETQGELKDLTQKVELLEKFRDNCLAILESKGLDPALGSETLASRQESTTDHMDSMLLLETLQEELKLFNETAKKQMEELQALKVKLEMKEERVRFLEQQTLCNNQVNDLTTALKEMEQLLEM
UniProt Q9BQD3: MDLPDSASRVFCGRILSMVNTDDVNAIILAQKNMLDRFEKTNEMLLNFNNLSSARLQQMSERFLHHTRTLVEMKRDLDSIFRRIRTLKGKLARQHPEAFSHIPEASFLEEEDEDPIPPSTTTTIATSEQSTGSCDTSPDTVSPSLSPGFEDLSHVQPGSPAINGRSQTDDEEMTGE
UniProt Q99661: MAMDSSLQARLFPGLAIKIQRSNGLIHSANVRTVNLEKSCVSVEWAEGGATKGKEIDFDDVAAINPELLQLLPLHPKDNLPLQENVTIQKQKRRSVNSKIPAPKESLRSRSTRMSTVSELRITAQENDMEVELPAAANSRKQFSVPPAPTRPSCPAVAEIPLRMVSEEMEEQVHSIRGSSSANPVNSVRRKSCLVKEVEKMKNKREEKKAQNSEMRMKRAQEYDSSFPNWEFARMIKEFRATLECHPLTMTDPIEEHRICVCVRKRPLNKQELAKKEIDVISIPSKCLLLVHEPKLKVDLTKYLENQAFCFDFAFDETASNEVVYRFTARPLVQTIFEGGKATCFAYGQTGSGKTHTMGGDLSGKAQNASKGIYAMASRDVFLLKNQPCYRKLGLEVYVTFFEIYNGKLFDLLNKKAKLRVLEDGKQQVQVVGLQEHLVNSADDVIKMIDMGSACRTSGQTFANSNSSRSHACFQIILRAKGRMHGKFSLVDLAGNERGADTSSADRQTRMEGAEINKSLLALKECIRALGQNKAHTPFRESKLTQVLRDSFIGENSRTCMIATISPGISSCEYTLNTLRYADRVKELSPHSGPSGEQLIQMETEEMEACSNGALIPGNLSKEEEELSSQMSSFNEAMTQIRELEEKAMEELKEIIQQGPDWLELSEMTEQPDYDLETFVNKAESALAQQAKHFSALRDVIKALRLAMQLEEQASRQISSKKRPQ
UniProt Q2M2Z5: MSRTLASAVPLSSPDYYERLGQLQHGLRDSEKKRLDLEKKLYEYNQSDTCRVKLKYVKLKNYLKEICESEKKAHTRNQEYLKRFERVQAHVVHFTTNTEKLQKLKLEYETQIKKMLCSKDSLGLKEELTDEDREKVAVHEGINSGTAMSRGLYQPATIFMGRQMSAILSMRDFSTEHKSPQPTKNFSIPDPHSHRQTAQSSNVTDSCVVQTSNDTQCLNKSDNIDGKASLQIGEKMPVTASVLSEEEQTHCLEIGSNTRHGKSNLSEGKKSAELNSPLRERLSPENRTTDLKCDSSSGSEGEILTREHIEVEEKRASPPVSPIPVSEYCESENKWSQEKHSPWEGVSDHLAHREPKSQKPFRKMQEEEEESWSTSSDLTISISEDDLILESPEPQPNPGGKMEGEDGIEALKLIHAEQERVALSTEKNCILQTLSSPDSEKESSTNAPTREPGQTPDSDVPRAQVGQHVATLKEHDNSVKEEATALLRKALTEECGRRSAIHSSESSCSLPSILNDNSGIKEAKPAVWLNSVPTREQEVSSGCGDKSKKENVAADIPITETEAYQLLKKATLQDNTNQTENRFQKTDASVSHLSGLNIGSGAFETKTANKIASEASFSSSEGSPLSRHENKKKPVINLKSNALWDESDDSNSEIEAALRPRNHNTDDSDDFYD
UniProt P83111: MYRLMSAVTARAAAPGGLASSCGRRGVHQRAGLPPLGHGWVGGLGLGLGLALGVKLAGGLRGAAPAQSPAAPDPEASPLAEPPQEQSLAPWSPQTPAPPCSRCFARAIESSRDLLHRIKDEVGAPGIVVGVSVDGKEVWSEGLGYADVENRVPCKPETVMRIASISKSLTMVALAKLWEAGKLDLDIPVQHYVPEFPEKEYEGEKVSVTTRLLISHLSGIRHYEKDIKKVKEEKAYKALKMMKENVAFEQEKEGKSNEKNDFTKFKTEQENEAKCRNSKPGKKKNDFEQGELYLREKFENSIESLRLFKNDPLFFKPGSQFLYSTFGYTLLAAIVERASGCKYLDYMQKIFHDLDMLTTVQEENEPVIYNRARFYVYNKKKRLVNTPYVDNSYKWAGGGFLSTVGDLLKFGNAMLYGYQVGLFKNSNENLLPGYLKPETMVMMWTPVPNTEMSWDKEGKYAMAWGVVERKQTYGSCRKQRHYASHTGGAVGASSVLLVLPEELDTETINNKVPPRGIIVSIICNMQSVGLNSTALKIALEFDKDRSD
UniProt P23276: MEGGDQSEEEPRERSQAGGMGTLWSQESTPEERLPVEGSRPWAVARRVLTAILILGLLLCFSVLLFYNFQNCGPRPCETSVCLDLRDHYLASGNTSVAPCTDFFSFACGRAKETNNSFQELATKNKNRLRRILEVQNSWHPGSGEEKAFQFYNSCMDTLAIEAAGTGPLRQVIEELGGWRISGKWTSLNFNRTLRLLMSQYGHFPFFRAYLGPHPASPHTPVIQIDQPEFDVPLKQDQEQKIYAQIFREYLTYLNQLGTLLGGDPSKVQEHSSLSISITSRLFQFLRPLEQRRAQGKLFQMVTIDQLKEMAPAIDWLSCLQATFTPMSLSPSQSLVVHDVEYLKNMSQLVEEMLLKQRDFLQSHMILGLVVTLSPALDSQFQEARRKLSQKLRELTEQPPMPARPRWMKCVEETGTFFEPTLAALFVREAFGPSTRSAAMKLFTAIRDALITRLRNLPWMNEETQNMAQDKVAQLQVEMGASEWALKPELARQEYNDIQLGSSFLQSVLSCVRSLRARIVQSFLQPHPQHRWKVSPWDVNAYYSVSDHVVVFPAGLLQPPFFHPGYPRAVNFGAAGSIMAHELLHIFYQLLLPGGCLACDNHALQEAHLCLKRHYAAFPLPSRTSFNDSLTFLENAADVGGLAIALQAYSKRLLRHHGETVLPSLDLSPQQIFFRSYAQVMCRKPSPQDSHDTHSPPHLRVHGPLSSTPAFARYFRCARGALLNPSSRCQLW
UniProt Q7Z4S6: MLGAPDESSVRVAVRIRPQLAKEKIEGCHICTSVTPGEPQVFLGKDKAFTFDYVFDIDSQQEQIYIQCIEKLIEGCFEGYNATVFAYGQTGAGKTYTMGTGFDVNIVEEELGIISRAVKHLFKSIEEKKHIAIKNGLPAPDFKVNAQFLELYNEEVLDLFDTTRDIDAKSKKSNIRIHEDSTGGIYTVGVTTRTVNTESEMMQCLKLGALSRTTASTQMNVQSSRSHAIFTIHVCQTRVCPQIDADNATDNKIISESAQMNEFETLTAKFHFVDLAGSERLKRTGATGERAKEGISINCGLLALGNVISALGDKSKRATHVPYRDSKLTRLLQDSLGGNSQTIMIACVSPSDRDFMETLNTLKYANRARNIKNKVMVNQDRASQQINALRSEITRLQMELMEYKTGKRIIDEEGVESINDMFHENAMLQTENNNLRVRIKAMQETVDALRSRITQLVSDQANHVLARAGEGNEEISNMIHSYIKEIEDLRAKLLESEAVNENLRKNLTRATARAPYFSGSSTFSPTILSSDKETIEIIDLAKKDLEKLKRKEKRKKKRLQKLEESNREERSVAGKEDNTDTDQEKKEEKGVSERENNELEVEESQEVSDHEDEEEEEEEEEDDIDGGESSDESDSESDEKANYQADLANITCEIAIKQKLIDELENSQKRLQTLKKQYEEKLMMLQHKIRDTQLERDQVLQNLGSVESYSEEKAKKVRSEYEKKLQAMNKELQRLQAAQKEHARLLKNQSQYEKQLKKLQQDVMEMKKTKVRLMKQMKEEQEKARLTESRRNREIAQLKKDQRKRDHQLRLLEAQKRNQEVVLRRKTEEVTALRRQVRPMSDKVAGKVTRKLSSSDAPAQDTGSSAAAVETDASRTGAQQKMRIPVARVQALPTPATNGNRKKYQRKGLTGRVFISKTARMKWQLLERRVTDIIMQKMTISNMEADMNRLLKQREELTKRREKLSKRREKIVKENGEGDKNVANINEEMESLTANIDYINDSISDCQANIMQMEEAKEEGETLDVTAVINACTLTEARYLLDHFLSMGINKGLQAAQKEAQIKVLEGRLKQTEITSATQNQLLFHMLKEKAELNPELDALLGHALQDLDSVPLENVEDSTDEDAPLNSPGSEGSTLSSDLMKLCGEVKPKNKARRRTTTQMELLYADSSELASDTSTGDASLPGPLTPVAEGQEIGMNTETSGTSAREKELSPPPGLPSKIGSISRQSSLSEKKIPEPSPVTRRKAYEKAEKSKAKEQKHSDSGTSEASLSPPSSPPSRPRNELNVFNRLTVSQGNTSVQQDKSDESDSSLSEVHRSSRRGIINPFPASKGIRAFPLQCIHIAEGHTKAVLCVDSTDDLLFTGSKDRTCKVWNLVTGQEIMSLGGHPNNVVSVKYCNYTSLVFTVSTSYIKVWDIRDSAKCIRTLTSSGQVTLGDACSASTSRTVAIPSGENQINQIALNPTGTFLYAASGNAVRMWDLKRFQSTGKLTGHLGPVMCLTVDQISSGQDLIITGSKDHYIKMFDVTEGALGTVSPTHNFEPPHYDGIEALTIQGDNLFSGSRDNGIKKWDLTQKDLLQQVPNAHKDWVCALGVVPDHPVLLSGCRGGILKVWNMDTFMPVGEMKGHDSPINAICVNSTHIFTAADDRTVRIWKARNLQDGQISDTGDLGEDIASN
UniProt O60870: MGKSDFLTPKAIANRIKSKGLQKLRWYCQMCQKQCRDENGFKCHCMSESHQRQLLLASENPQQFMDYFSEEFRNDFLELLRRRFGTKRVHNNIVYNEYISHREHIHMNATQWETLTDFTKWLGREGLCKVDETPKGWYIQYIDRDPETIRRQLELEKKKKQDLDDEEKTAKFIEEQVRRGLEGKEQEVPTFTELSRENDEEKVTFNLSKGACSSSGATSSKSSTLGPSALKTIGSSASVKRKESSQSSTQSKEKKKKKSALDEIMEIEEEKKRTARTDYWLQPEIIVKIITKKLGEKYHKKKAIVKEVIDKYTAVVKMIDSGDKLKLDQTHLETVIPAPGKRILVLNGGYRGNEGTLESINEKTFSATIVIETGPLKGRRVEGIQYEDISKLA
UniProt Q9Y2Q5, whole entry, looked up: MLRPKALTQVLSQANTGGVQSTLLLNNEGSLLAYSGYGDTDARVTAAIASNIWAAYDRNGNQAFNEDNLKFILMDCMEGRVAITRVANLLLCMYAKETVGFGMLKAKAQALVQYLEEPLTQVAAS
UniProt Q96A73: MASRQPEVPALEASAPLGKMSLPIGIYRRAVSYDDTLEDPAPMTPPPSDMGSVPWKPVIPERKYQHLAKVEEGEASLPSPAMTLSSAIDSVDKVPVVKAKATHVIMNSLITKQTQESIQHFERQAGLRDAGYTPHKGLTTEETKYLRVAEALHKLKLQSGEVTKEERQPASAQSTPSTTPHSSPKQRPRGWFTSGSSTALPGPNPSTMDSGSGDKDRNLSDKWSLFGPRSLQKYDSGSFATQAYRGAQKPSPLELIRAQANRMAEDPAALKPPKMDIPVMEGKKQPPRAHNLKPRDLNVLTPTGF
UniProt Q9NS86: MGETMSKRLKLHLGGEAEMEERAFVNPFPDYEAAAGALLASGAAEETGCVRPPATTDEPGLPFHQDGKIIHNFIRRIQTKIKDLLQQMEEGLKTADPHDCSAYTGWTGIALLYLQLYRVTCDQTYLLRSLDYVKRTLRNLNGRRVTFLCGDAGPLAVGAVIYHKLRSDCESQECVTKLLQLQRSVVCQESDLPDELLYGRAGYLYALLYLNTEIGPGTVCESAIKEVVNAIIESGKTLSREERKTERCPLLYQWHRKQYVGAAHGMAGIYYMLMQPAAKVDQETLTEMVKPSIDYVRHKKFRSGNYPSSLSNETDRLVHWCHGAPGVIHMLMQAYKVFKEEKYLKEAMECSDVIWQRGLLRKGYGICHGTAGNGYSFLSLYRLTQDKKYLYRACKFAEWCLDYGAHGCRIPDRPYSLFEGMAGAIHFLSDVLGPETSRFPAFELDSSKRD

[1] = compound: C/C(=N\NC(=O)C1=CC(=CC=C1)S(=O)(=O)N2CCOCC2)/C3=C(C=CC(=C3)Cl)O
Procedure, shortened: as §1

[2] = compound: C1=CC(=CC=C1C2=NC3=C(N2)C=C(C=C3)C(=O)N)OC4=CC=C(C=C4)Cl
Procedure, shortened: as §1

[3] = compound: C1=CC2=C(C=CC(=C2)/C=C\3/C(=O)NC(=NCC4=CC=CS4)S3)N=C1
Procedure, shortened: as §1

[4] = compound: C1=CC2=NC=CN=C2C=C1/C=C/3\C(=O)NC(=O)S3
Procedure, shortened: as §1

[5] = compound: C1=CC=C(C=C1)C2=NC(=C(N2)C3=CC=NC=C3)C4=CC(=C(C=C4)Cl)O
Procedure, shortened: as §1

[6] = compound: C1=CC=C2C(=C1)C3=NNC4=CC=CC(=C43)C2=O
Procedure, shortened: as §1

[7] = compound: C1CCN(C1)C(=O)NC2=CC=CC(=C2)NC3=NC=C(C(=N3)NCCC4=CN=CN4)Br
Procedure, shortened: as §1

[8] = compound: C1CN(CCC1(CC2=CC=C(C=C2)Cl)N)C3=NC=NC4=C3C=CN4
Procedure, shortened: as §1

IRAK-1-4 Inhibitor I = compound: C1COCCN1CCN2C3=CC=CC=C3N=C2NC(=O)C4=CC(=CC=C4)[N+](=O)[O-] [IRAK-1-4 Inhibitor I]
Procedure, shortened: as §1

Measured: log2 fold change

KMT2C isoform 3 (UniProt Q8NEZ4)
inactive: erlotinib 0.031 | [1] -0.029 | [2] -0.029 | [3] 0.016 | [4] -0.053 | [5] 0.067 | [6] -0.009 | [7] -0.018 | [8] -0.01 | IRAK-1-4 Inhibitor I 0.005

KPTN (UniProt Q9Y664)
inactive: erlotinib 0.005 | [1] -0.003 | [2] 0.063 | [3] -0.076 | [4] 0.005 | [5] -0.092 | [6] 0.064 | [7] 0.031 | [8] 0.02 | IRAK-1-4 Inhibitor I 0.032

LAMP1 (UniProt P11279)
inactive: erlotinib 0.024 | [1] 0.012 | [2] 0.021 | [3] -0.009 | [4] 0.012 | [5] 0.006 | [6] -0.006 | [7] -0.023 | [8] 0.038 | IRAK-1-4 Inhibitor I 0.091

KNSTRN (UniProt Q9Y448)
inactive: erlotinib -0.007 | [1] -0.003 | [2] -0.018 | [3] 0.006 | [4] -0.018 | [5] 0.015 | [6] 0.012 | [7] 0.036 | [8] -0.061 | IRAK-1-4 Inhibitor I -0.039

KXD1 (UniProt Q9BQD3)
inactive: erlotinib -0.025 | [1] 0.058 | [2] 0.052 | [3] -0.024 | [4] -0.116 | [5] 0.057 | [6] -0.018 | [7] 0.034 | [8] -0.01 | IRAK-1-4 Inhibitor I -0.025

KRI1 (UniProt Q8N9T8)
inactive: erlotinib -0.017 | [1] -0.038 | [2] -0.017 | [3] -0.1 | [4] -0.012 | [5] 0.02 | [6] -0.138 | [7] 0.033 | [8] -0.04 | IRAK-1-4 Inhibitor I 0.047

KIF2C (UniProt Q99661)
inactive: erlotinib 0.019 | [1] 0.033 | [2] -0.008 | [3] -0.01 | [4] -0.008 | [5] 0.002 | [6] -0.033 | [7] 0.015 | [8] -0.006 | IRAK-1-4 Inhibitor I -0.019

LAMTOR5 (UniProt O43504)
inactive: erlotinib 0.067 | [1] -0.015 | [2] -0.031 | [3] 0.032 | [4] -0.025 | [5] -0.011 | [6] 0.018 | [7] -0.111 | [8] 0.071 | IRAK-1-4 Inhibitor I -0.02

LACTB2 (UniProt Q53H82)
inactive: erlotinib 0.01 | [1] -0.104 | [2] 0.033 | [3] -0.006 | [4] 0.006 | [5] 0.011 | [6] 0.003 | [7] 0.001 | [8] 0.007 | IRAK-1-4 Inhibitor I -0.023

KIZ (UniProt Q2M2Z5)
inactive: erlotinib 0.123 | [1] 0.06 | [2] 0.112 | [3] -0.059 | [4] 0 | [5] -0.06 | [6] -0.278 | [7] 0.024 | [8] -0.059 | IRAK-1-4 Inhibitor I 0.03

L3HYPDH (UniProt Q96EM0)
inactive: erlotinib -0.004 | [1] 0.057 | [2] 0.028 | [3] -0.027 | [4] 0.033 | [5] -0.03 | [6] -0.048 | [7] 0 | [8] 0.038 | IRAK-1-4 Inhibitor I 0.029

KDM4A (UniProt O75164)
inactive: erlotinib 0.044 | [1] -0.028 | [2] 0.01 | [3] 0.024 | [4] -0.008 | [5] 0.029 | [6] -0.04 | [7] -0.021 | [8] -0.03 | IRAK-1-4 Inhibitor I 0.018

LACTB (UniProt P83111)
inactive: erlotinib -0.02 | [1] -0.05 | [2] -0.028 | [3] 0.028 | [4] -0.027 | [5] 0.059 | [6] 0.006 | [7] 0.014 | [8] -0.033 | IRAK-1-4 Inhibitor I -0.11

KEL (UniProt P23276)
inactive: erlotinib -0.005 | [1] 0.023 | [2] -0.014 | [3] 0.021 | [4] -0.072 | [5] -0.033 | [6] -0.004 | [7] -0.015 | [8] -0.047 | IRAK-1-4 Inhibitor I 0.015

KIF21A isoform 5 (UniProt Q7Z4S6)
inactive: erlotinib -0.025 | [1] 0.022 | [2] -0.002 | [3] 0.01 | [4] -0.013 | [5] -0.016 | [6] -0.034 | [7] -0.009 | [8] 0.01 | IRAK-1-4 Inhibitor I -0.002

LAMTOR4 (UniProt Q0VGL1)
inactive: erlotinib -0.024 | [1] 0.011 | [2] -0.003 | [3] -0.003 | [4] 0.009 | [5] 0.039 | [6] -0.031 | [7] -0.033 | [8] -0.016 | IRAK-1-4 Inhibitor I 0.011

KRBA1 (UniProt A5PL33)
inactive: erlotinib 0.105 | [1] 0.114 | [2] 0.005 | [3] 0.093 | [4] -0.056 | [5] 0.132 | [6] -0.195 | [7] -0.105 | [8] -0.016 | IRAK-1-4 Inhibitor I 0.071

KPNA2 (UniProt P52292)
inactive: erlotinib 0.009 | [1] 0.03 | [2] -0.026 | [3] 0.005 | [4] 0.002 | [5] -0.003 | [6] -0.053 | [7] -0.017 | [8] 0.013 | IRAK-1-4 Inhibitor I -0.02

KIF4A (UniProt O95239)
inactive: erlotinib 0.015 | [1] -0.022 | [2] -0.042 | [3] 0.02 | [4] 0.022 | [5] 0.014 | [6] -0.033 | [7] -0.026 | [8] 0.031 | IRAK-1-4 Inhibitor I -0.01

LARP7 isoform 3 (UniProt Q4G0J3)
inactive: erlotinib -0.026 | [1] 0.029 | [2] 0.007 | [3] -0.006 | [4] -0.011 | [5] 0.003 | [6] 0.012 | [7] -0.002 | [8] -0.017 | IRAK-1-4 Inhibitor I -0.022

LAMP2 (UniProt P13473)
inactive: erlotinib -0.054 | [1] 0.009 | [2] 0.034 | [3] 0.018 | [4] 0.008 | [5] -0.048 | [6] 0.096 | [7] 0.007 | [8] -0.023 | IRAK-1-4 Inhibitor I 0.035

KIN (UniProt O60870)
inactive: erlotinib 0.102 | [1] -0.027 | [2] 0.007 | [3] 0.014 | [4] 0.037 | [5] -0.039 | [6] -0.114 | [7] -0.008 | [8] -0.008 | IRAK-1-4 Inhibitor I 0.009

Looked up one by one from the list above (two):
LAMP2 (UniProt P13473)
inactive: erlotinib -0.054 | [1] 0.009 | [2] 0.034 | [3] 0.018 | [4] 0.008 | [5] -0.048 | [6] 0.096 | [7] 0.007 | [8] -0.023 | IRAK-1-4 Inhibitor I 0.035

LARP7 isoform 3 (UniProt Q4G0J3)
inactive: erlotinib -0.026 | [1] 0.029 | [2] 0.007 | [3] -0.006 | [4] -0.011 | [5] 0.003 | [6] 0.012 | [7] -0.002 | [8] -0.017 | IRAK-1-4 Inhibitor I -0.022

(cont.)

KIAA0513 (UniProt O60268)
inactive: erlotinib 0.019 | [1] -0.03 | [2] 0.039 | [3] -0.009 | [4] -0.044 | [5] 0.089 | [6] -0.011 | [7] -0.034 | [8] 0.043 | IRAK-1-4 Inhibitor I 0.037

KIF15 (UniProt Q9NS87)
inactive: erlotinib 0.004 | [1] 0.025 | [2] -0.01 | [3] 0.011 | [4] -0.019 | [5] 0.048 | [6] -0.054 | [7] -0.04 | [8] -0.019 | IRAK-1-4 Inhibitor I -0.012

KYNU (UniProt Q16719)
inactive: erlotinib -0.016 | [1] 0.009 | [2] -0.058 | [3] 0.004 | [4] -0.002 | [5] -0.028 | [6] 0.011 | [7] -0.001 | [8] -0.018 | IRAK-1-4 Inhibitor I 0.014

LAMTOR2 (UniProt Q9Y2Q5)
inactive: erlotinib 0.03 | [1] -0.03 | [2] -0.007 | [3] 0.032 | [4] -0.011 | [5] -0.038 | [6] -0.024 | [7] -0.05 | [8] 0.021 | IRAK-1-4 Inhibitor I 0.05

KIAA1191 (UniProt Q96A73)
inactive: erlotinib -0.015 | [1] 0.015 | [2] 0.047 | [3] -0.026 | [4] -0.072 | [5] 0.078 | [6] -0.081 | [7] -0.081 | [8] 0.039 | IRAK-1-4 Inhibitor I -0.015

KIAA2013 (UniProt Q8IYS2)
inactive: erlotinib 0.003 | [1] -0.084 | [2] 0.02 | [3] 0.03 | [4] -0.02 | [5] 0 | [6] -0.002 | [7] -0.021 | [8] -0.021 | IRAK-1-4 Inhibitor I -0.014

LANCL2 (UniProt Q9NS86)
inactive: erlotinib 0 | [1] 0.01 | [2] 0.057 | [3] -0.033 | [4] 0.024 | [5] -0.002 | [6] 0.005 | [7] -0.028 | [8] 0.039 | IRAK-1-4 Inhibitor I 0.003

Reference: the supplement of paper PMC10849652
